Results are given in words; binding and its absence hold for the method and conditions named. In cells and extracts the contact can be indirect. A yes stands for co-enrichment or nearness to the bait. Other partners may have been found.

Chains of the proteins cited; added tags and fusions are not shown.
UniProt Q99MQ3: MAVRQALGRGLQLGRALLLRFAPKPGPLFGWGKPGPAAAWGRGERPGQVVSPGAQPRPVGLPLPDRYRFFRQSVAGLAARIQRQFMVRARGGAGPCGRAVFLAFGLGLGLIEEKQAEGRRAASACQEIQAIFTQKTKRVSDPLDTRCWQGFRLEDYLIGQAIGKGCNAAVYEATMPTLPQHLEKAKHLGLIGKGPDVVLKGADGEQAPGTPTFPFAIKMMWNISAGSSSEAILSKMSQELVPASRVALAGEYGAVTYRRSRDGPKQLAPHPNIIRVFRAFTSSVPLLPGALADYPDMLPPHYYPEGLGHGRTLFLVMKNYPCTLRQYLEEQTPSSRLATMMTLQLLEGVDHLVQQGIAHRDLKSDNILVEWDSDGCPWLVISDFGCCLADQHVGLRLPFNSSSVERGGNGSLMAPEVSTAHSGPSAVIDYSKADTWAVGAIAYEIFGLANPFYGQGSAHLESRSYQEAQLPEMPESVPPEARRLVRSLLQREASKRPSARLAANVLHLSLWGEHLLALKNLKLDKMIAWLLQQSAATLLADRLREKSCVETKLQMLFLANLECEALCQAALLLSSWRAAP

The target of the assay is PTEN‐induced kinase 1 (PINK1), endogenous in mouse heart tissue (mouse (endogenous in heart tissue)) (UniProt Q99MQ3). The assay can be described thus: affinity purification with mass spectrometry; mouse heart tissue immunoprecipitated with an anti-PINK1 antibody; obtained proteins analysed by mass spectrometry.

B1: peroxiredoxin‐2 (Prdx2), endogenous in mouse heart tissue (protein, UniProt Q61171 1-198)
chain: MASGNAQIGKSAPDFTATAVVDGAFKEIKLSDYRGKYVVLFFYPLDFTFVCPTEIIAFSDHAEDFRKLGCEVLGVSVDSQFTHLAWINTPRKEGGLGPLNIPLLADVTKSLSQNYGVLKNDEGIAYRGLFIIDAKGVLRQITVNDLPVGRSVDEALRLVQAFQYTDEHGEVCPAGWKPGSDTIKPNVDDSKEYFSKHN
As for B1, the binding entry is recorded as “binds”.

(Values after publication PMC11705485.)
